Results are given in words; binding and its absence hold for the method and conditions named. Binding seen in cells or lysates may run through a third protein. A yes stands for co-enrichment or nearness to the bait. Other partners may have been found.
biological target: Rere-HA (mouse) (UniProt Q80TZ9); assay: affinity purification with mass spectrometry; anti-HA affinity purification (Sigma or Roche antibody) from whole cell extracts of E10.5 RS-Rere-HA;T-Cre mouse embryos; low salt (150 mM NaCl) or high salt (300 mM NaCl); HA peptide and SDS elution; MudPIT; wild-type embryos as negative control

Sequences of proteins named here, by UniProt entry; tags and fusion partners are left off.
UniProt Q80TZ9: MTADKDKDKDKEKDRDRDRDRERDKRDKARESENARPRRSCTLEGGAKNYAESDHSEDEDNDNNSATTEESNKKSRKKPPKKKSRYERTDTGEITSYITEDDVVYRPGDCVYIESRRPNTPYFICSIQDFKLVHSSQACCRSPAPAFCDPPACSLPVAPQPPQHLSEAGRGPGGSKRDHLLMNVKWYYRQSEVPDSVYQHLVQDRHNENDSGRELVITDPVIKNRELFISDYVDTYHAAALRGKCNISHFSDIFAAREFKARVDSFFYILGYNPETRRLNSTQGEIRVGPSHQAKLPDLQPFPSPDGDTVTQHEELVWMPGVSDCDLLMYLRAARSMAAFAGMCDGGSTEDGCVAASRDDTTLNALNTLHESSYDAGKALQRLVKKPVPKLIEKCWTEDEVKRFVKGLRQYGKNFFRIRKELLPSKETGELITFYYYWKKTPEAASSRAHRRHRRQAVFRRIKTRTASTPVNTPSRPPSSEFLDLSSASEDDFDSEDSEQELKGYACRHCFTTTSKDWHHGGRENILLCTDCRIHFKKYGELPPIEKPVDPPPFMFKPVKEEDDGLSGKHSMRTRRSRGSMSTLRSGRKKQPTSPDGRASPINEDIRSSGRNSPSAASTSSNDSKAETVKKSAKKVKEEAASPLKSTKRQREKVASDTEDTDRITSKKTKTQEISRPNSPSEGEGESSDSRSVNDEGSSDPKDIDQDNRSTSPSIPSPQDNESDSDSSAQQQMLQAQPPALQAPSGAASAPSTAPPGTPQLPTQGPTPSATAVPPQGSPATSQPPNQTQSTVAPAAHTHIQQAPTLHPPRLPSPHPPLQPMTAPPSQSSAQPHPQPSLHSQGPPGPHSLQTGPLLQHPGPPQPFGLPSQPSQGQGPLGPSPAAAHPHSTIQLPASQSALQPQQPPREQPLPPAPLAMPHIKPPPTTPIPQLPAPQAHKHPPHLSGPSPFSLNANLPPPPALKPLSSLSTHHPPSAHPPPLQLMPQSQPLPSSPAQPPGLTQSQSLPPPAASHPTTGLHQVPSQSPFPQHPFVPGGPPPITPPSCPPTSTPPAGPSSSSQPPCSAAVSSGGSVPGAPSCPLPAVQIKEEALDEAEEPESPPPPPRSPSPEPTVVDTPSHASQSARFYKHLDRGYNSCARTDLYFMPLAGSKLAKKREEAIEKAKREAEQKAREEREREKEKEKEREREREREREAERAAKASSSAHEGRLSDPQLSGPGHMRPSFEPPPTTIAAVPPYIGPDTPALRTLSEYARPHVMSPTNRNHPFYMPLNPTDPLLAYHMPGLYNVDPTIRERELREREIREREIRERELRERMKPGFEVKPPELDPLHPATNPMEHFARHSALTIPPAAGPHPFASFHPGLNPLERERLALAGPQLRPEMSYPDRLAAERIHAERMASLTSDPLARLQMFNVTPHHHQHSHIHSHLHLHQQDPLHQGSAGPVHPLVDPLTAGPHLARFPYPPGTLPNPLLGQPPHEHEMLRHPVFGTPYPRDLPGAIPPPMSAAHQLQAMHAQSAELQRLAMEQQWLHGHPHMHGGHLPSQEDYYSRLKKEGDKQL
UniProt O09106: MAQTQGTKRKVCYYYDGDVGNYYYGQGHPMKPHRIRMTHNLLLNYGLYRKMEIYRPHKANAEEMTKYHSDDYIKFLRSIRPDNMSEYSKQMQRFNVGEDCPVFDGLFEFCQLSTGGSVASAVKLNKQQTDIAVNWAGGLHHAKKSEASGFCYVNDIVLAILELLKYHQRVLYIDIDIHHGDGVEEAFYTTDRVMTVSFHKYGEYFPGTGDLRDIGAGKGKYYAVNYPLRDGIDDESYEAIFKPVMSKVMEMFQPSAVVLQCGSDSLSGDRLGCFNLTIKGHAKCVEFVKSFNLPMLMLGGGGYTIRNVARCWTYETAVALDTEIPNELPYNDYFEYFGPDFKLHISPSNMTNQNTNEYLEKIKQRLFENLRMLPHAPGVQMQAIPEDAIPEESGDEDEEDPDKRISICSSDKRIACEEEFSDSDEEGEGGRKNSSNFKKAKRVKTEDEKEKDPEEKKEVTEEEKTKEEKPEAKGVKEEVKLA
UniProt Q9Z148: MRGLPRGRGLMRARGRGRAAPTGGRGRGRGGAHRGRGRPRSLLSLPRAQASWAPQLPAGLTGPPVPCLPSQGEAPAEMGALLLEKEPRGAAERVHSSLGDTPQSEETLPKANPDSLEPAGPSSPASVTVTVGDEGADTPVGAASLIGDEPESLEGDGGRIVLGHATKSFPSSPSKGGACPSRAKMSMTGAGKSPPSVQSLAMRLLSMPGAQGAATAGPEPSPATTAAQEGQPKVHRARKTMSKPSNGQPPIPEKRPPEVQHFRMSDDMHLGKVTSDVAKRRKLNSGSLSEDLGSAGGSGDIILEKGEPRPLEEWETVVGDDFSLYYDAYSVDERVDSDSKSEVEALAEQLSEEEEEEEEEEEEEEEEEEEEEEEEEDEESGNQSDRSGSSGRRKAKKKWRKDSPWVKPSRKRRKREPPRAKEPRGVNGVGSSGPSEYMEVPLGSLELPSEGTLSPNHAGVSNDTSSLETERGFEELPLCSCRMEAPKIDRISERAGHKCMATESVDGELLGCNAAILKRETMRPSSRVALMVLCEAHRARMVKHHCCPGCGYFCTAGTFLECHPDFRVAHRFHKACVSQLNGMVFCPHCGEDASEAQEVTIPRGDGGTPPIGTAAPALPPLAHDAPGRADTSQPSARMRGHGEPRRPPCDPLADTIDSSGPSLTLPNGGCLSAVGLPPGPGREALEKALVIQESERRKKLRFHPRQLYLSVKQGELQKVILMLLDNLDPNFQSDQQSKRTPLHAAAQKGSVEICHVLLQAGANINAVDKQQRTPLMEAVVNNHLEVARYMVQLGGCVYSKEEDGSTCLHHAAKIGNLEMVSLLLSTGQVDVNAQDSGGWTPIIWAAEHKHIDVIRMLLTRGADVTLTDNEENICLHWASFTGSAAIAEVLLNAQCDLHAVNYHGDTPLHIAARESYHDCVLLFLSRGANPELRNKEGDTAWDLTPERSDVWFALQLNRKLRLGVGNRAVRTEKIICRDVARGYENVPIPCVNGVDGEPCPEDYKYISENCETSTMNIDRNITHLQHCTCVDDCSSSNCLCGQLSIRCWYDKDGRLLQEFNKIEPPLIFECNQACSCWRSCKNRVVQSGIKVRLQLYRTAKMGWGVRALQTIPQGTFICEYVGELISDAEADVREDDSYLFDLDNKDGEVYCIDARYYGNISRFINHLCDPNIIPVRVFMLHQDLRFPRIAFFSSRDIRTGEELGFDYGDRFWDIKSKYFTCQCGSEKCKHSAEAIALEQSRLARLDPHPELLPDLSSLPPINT
UniProt P70288: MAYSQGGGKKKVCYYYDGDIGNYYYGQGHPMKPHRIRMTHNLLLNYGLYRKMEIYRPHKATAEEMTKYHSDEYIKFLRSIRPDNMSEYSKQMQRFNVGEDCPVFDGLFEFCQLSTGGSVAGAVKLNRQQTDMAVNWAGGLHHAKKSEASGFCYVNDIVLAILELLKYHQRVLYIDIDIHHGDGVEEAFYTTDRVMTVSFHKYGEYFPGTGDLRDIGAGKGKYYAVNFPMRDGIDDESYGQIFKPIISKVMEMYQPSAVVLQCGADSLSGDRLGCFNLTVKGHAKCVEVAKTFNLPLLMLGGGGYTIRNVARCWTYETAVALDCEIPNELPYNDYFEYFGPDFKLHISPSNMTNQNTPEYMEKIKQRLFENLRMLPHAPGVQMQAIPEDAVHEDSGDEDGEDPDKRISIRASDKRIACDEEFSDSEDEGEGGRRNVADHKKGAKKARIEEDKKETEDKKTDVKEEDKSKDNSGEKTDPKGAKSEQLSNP

Question: How did the binding turn out when “Hdac1 (endogenous, mouse embryo) (from UniProt O09106 1-482)” was run?
Answer: binds

Question: With “Ehmt2 (endogenous, mouse embryo) (from UniProt Q9Z148 1-1263)” as the substance, how does the binding read?
Answer: binds

Question: Which binding does the source give for “Hdac2 (endogenous, mouse embryo) (from UniProt P70288 1-488)” here?
Answer: binds

— publication PMC5620087
